Reference: PMC8384837
The list shows a part of the results. Construct or isoform of the protein are uncertain.

These sequences were tested against T1, PUM1 PUF domain R5-PHQ R6-SWD C1007P + R1008H + N1043S + Y1044W + Q1047D (UniProt Q14671). Conditions: yeast three-hybrid, YBZ-1, SC-Leu-His + 0.5 mM 3-AT, 4 days.
T1 sequence: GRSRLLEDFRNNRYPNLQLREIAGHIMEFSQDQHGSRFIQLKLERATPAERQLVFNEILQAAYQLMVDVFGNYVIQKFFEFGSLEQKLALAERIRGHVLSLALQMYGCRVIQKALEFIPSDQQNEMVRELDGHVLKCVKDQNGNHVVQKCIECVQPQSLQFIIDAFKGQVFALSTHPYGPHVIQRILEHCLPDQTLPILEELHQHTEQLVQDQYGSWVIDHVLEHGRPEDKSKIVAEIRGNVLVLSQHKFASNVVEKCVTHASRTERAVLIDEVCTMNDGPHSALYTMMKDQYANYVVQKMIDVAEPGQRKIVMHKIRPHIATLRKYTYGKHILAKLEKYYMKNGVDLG

Sequence	binding signal (log2 enrichment (interaction score))
GGCUAGAACUAGUGGAUCCCCCGGCGCCCGGCGGCUCGAGCCCGGGUAAGUUUAAGAAGUCUGCAUGCCGCCGGGCGCCAUGCCUGCAGGUCGACUCUAGAAAACAUG	-7.51
GGCUAGAACUAGUGGAUCCCCCGGCGCCCGGCGGCUCGAGCCCGGGUAAGUUGACGUCGUCUGCAUGCCGCCGGGCGCCAUGCCUGCAGGUCGACUCUAGAAAACAUG	-8.07
GGCUAGAACUAGUGGAUCCCCCGGCGCCCGGCGGCUCGAGCCCGGGUAAGUCGAAGUAGUCUGCAUGCCGCCGGGCGCCAUGCCUGCAGGUCGACUCUAGAAAACAUG	-7.29
GGCUAGAACUAGUGGAUCCCCCGGCGCCCGGCGGCUCGAGCCCGGGUAAGUGGAUGGAGUCUGCAUGCCGCCGGGCGCCAUGCCUGCAGGUCGACUCUAGAAAACAUG	< -7.34
GGCUAGAACUAGUGGAUCCCCCGGCGCCCGGCGGCUCGAGCCCGGGUAAGUGGAAGAUGUCUGCAUGCCGCCGGGCGCCAUGCCUGCAGGUCGACUCUAGAAAACAUG	-6.96
GGCUAGAACUAGUGGAUCCCCCGGCGCCCGGCGGCUCGAGCCCGGGUAAGUUUAAAUAGUCUGCAUGCCGCCGGGCGCCAUGCCUGCAGGUCGACUCUAGAAAACAUG	-8.33
GGCUAGAACUAGUGGAUCCCCCGGCGCCCGGCGGCUCGAGCCCGGGUAAGUGUAAAUGGUCUGCAUGCCGCCGGGCGCCAUGCCUGCAGGUCGACUCUAGAAAACAUG	< -8.42
GGCUAGAACUAGUGGAUCCCCCGGCGCCCGGCGGCUCGAGCCCGGGUAAGUGUACGAAGUCUGCAUGCCGCCGGGCGCCAUGCCUGCAGGUCGACUCUAGAAAACAUG	-9.56
GGCUAGAACUAGUGGAUCCCCCGGCGCCCGGCGGCUCGAGCCCGGGUAAGUGCUAGAAGUCUGCAUGCCGCCGGGCGCCAUGCCUGCAGGUCGACUCUAGAAAACAUG	-8.27
GGCUAGAACUAGUGGAUCCCCCGGCGCCCGGCGGCUCGAGCCCGGGUAAGUUGAAAACGUCUGCAUGCCGCCGGGCGCCAUGCCUGCAGGUCGACUCUAGAAAACAUG	-8.99
GGCUAGAACUAGUGGAUCCCCCGGCGCCCGGCGGCUCGAGCCCGGGUAAGUAUAGCUAGUCUGCAUGCCGCCGGGCGCCAUGCCUGCAGGUCGACUCUAGAAAACAUG	< -7.35
GGCUAGAACUAGUGGAUCCCCCGGCGCCCGGCGGCUCGAGCCCGGGUAAGUUGGAUCAGUCUGCAUGCCGCCGGGCGCCAUGCCUGCAGGUCGACUCUAGAAAACAUG	< -7.9
GGCUAGAACUAGUGGAUCCCCCGGCGCCCGGCGGCUCGAGCCCGGGUAAGUGGACGACGUCUGCAUGCCGCCGGGCGCCAUGCCUGCAGGUCGACUCUAGAAAACAUG	-8.31
GGCUAGAACUAGUGGAUCCCCCGGCGCCCGGCGGCUCGAGCCCGGGUAAGUGUAAAUAGUCUGCAUGCCGCCGGGCGCCAUGCCUGCAGGUCGACUCUAGAAAACAUG	-7.27
GGCUAGAACUAGUGGAUCCCCCGGCGCCCGGCGGCUCGAGCCCGGGUAAGUUCAUAUAGUCUGCAUGCCGCCGGGCGCCAUGCCUGCAGGUCGACUCUAGAAAACAUG	< -7.9
GGCUAGAACUAGUGGAUCCCCCGGCGCCCGGCGGCUCGAGCCCGGGUAAGUGGACGUAGUCUGCAUGCCGCCGGGCGCCAUGCCUGCAGGUCGACUCUAGAAAACAUG	-8.82
GGCUAGAACUAGUGGAUCCCCCGGCGCCCGGCGGCUCGAGCCCGGGUAAGUUGGAAUAGUCUGCAUGCCGCCGGGCGCCAUGCCUGCAGGUCGACUCUAGAAAACAUG	-5.78
GGCUAGAACUAGUGGAUCCCCCGGCGCCCGGCGGCUCGAGCCCGGGUAAGUUGACGUAGUCUGCAUGCCGCCGGGCGCCAUGCCUGCAGGUCGACUCUAGAAAACAUG	-8.04
GGCUAGAACUAGUGGAUCCCCCGGCGCCCGGCGGCUCGAGCCCGGGUAAGUGUAAAUUGUCUGCAUGCCGCCGGGCGCCAUGCCUGCAGGUCGACUCUAGAAAACAUG	< -8.03
GGCUAGAACUAGUGGAUCCCCCGGCGCCCGGCGGCUCGAGCCCGGGUAAGUGAAAAUAGUCUGCAUGCCGCCGGGCGCCAUGCCUGCAGGUCGACUCUAGAAAACAUG	-2.84
GGCUAGAACUAGUGGAUCCCCCGGCGCCCGGCGGCUCGAGCCCGGGUAAGUGGACAUCGUCUGCAUGCCGCCGGGCGCCAUGCCUGCAGGUCGACUCUAGAAAACAUG	-8.15
GGCUAGAACUAGUGGAUCCCCCGGCGCCCGGCGGCUCGAGCCCGGGUAAGUUGAAGUAGUCUGCAUGCCGCCGGGCGCCAUGCCUGCAGGUCGACUCUAGAAAACAUG	-8.65
GGCUAGAACUAGUGGAUCCCCCGGCGCCCGGCGGCUCGAGCCCGGGUAAGUGUAAAUCGUCUGCAUGCCGCCGGGCGCCAUGCCUGCAGGUCGACUCUAGAAAACAUG	-8.34
GGCUAGAACUAGUGGAUCCCCCGGCGCCCGGCGGCUCGAGCCCGGGUAAGAUGAAAUCGUCUGCAUGCCGCCGGGCGCCAUGCCUGCAGGUCGACUCUAGAAAACAUG	-8.27

Taken from above.
GGCUAGAACUAGUGGAUCCCCCGGCGCCCGGCGGCUCGAGCCCGGGUAAGUUUAAGAAGUCUGCAUGCCGCCGGGCGCCAUGCCUGCAGGUCGACUCUAGAAAACAUG | binding signal (log2 enrichment (interaction score)): -7.51
GGCUAGAACUAGUGGAUCCCCCGGCGCCCGGCGGCUCGAGCCCGGGUAAGUUGGAUCAGUCUGCAUGCCGCCGGGCGCCAUGCCUGCAGGUCGACUCUAGAAAACAUG | binding signal (log2 enrichment (interaction score)): < -7.9
